Values quoted from earlier work, collected in US20060121117A1, “Anti-angiogenic compositions and methods of use” (ANGIOTECH PHARMACEUTICALS, INC., priority 1993, published 2006).

Details: cited from earlier work

In the case of `CC(=O)O[C@H]1C(=O)[C@@]2(C)[C@H]([C@H](OC(=O)c3ccccc3)[C@]3(O)C[C@H](OC(=O)[C@H](O)[C@@H](NC(=O)c4ccccc4)c4ccccc4)C(C)=C1C3(C)C)[C@]1(OC(C)=O)CO[C@@H]1C[C@@H]2O` [Paclitaxel], the solubility in water is listed as “insoluble in water”.
